Source: PubChem BioAssay AID504808 (Drosophila RNAi Screening Center, 2011)
Test: 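Fly genes required to hold E2F transcription in check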 (primary screen). Cell system: Drosophila S2 cells. Knock-down reagent: long dsRNA against Drosophila genes. Measured: 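Dual luciferase plate measurements; E2F-specific signal taken as firefly over Renilla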. Reading the numbers: E2F firefly: higher = more E2F reporter activity; Renilla normaliser: higher = more normaliser reporter signal. Hit rule: 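a knock-down counted as active when the firefly/Renilla E2F signal rose above 50%, a threshold chosen arbitrarily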.
The deposit covers about 21,000 reagents; shown is an unselected part of those that have a named target and a result. Of all reagents, 18 (0.084%) got an active call. 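Raw counts without plate normalisation, one of two replicates; the ratio scores behind the calls were not deposited.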 A plus sign joins genes that one reagent is predicted to hit. The record does not give: the amount of reagent, the time to read-out.

| Gene | DRSC id | E2F firefly, rep 1 | Renilla normaliser, rep 1 | outcome |
| --- | --- | --- | --- | --- |
| Or24a (Odorant receptor 24a) | DRSC00768 | 1.44e5 | 4916 | inactive |
| SmD3 (Small ribonucleoprotein particle protein SmD3) | DRSC07553 | 67421 | 3847 | inactive |
| CG32830 (retired record) | DRSC01162 | 85419 | 4069 | inactive |
| CG12782 | DRSC04127 | 97207 | 3904 | inactive |
| CG4080 | DRSC10398 | 71595 | 3895 | inactive |
| daed (daedalus) | DRSC00299 | 92750 | 3710 | inactive |
| LeuRS (Leucyl-tRNA synthetase) | DRSC00581 | 1.64e5 | 5354 | inactive |
| CG6665 | DRSC07006 | 71563 | 3403 | inactive |
| Obp56h (Odorant-binding protein 56h) | DRSC06433 | 1.34e5 | 4766 | inactive |
| CG13581 | DRSC04216 | 1.16e5 | 4939 | inactive |
| Sse (Separase) | DRSC09746 | 72221 | 4749 | inactive |
| Rab32 | DRSC05146 | 1.41e5 | 5533 | inactive |
| Rab32 | DRSC07522 | 3111 | 166 | inactive |
| CG30015 | DRSC05241 | 1.28e5 | 5067 | inactive |
| CG30015 | DRSC07027 | 2355 | 179 | inactive |
| CG30015 | DRSC07028 | 1.46e5 | 4494 | inactive |
| Crk (Crk oncogene) | DRSC17163 | 1791 | 928 | inactive |
| NT5E-2 (Ecto-5'-nucleotidase 2) | DRSC06893 | 78849 | 2901 | inactive |
| CG9631 | DRSC14137 | 70101 | 3444 | inactive |
| Lcp65Ad | DRSC11211 | 1.02e5 | 4155 | inactive |
| CG10472 | DRSC09730 | 75244 | 3990 | inactive |
| CG9313 | DRSC04540 | 98453 | 3829 | inactive |
| CG14671 | DRSC12257 | 1.38e5 | 6459 | inactive |
| CG14072 | DRSC02375 | 1.64e5 | 5961 | inactive |
| CG31122 | DRSC14787 | 64417 | 3992 | inactive |
| CG31122 | DRSC16286 | 1.41e5 | 7524 | inactive |
| HDAC4 (Histone deacetylase 4) | DRSC19780 | 1.33e5 | 6304 | inactive |
| Vps16B (Vacuolar protein sorting 16B) | DRSC15304 | 1.29e5 | 6775 | inactive |
| AANATL6 (Arylalkylamine N-acetyltransferase-like 6) | DRSC06773 | 1.45e5 | 5074 | inactive |
| CG4230 | DRSC02740 | 87606 | 4141 | inactive |
| ppk3 (pickpocket 3) | DRSC04275 | 1.05e5 | 4153 | inactive |
| CG13739 | DRSC06410 | 1.47e5 | 5152 | inactive |
| CG11122 | DRSC19382 | 8660 | 820 | inactive |
| asRNA:CR42743 + CG34162 | DRSC01190 | 1.37e5 | 6966 | inactive |
